This is one part of the list. Many values rest on one well or one pass, so single values are uncertain.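 The apoptosis fraction was the count of cleaved-PARP antibody-stained nuclei relative to all DNA-stained nuclei, imaged in 1,536-well plates. Screening doses were set so most cells survived, and baseline and induced cleaved-PARP levels vary greatly across cell lines.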
Assays:
Assay in all cases: cleaved PARP positive nuclei fraction relative to DMSO control; melanoma cells; higher = more apoptosis
Conditions in all cases: library dose: low library concentration; 72 h
[1] = system: CBRC034 (line from a melanoma biopsy)
[2] = system: COLO792
[3] = system: COLO800
[4] = system: COLO829
[5] = system: G361
[6] = system: IPC-298
[7] = system: IST-MEL1
[8] = system: LB2518-MEL
[9] = system: LOXIMVI
[10] = system: MEL-HO

Row | Compound | cleaved PARP positive nuclei fraction [1] [%] | cleaved PARP positive nuclei fraction [2] [%] | cleaved PARP positive nuclei fraction [3] [%] | cleaved PARP positive nuclei fraction [4] [%] | cleaved PARP positive nuclei fraction [5] [%] | cleaved PARP positive nuclei fraction [6] [%] | cleaved PARP positive nuclei fraction [7] [%] | cleaved PARP positive nuclei fraction [8] [%] | cleaved PARP positive nuclei fraction [9] [%] | cleaved PARP positive nuclei fraction [10] [%]
1 | COC(=O)c1sccc1S(=O)(=O)Nc1ccc(Nc2ccccc2)cc1OC + Cn1cc(/C=C2\C(=O)Nc3cccnc32)c2ccccc21 [GW441756] (first compound 1 µM, partner dose 0.4 µM) | 22.5 | 67.7 | 75.2 | 80.7 | 111 | 26.8 | 244 | 75.1 | 55 | –
2 | Oc1cc(-c2nc(-c3ccccc3)[nH]c2-c2ccncc2)ccc1Cl + O=C1NC(=O)/C(=C/c2ccc(-c3ccc(F)cc3O)o2)S1 [AS252424] (first compound 0.2 µM, partner dose 1 µM) | 105 | 98.5 | 80.9 | 113 | 133 | 86.9 | 89.6 | 163 | 60.4 | –
3 | NCC(=O)Nc1ccc(-n2nc(C(F)(F)F)cc2-c2ccc3c(ccc4ccccc43)c2)cc1 + CCc1ccc(CCOc2ccc(CC3SC(=O)NC3=O)cc2)nc1 [pioglitazone] (first compound 1 µM, partner dose 2 µM) | 43 | 60.8 | 179 | 158 | 82.6 | 168 | 48.4 | 168 | 46.6 | –
4 | N#Cc1c(O)c2c(-c3ccc(-c4ccccc4O)cc3)csc2[nH]c1=O + O=C1NC(=O)/C(=C/c2ccc(-c3ccc(F)cc3O)o2)S1 [AS252424] (first compound 2 µM, partner dose 1 µM) | 123 | 230 | 50.6 | 177 | 99.6 | 40.1 | 68.9 | 95 | 44.3 | –
5 | COc1cc2c(Oc3ccc4[nH]c(C)cc4c3F)ncnc2cc1OCCCN1CCCC1 [cediranib] + O=C(Nc1ccccc1)c1cc([N+](=O)[O-])ccc1Cl [GW9662] (first compound 0.4 µM, partner dose 2 µM) | 115 | 169 | 142 | 131 | 23.4 | 128 | 88.8 | 153 | 12.2 | –
6 | COc1ccc(-c2ccc3c(N4CCOCC4)nc(N4C[C@@H](C)O[C@@H](C)C4)nc3n2)cc1CO + Cc1cc([N+](=O)[O-])ccc1NS(=O)(=O)c1cc(Cl)ccc1Cl [FH535] (first compound 0.02 µM, partner dose 1 µM) | 101 | 170 | 145 | 239 | 41.9 | 60.6 | 159 | 80.3 | 49.9 | –
7 | CN(C)S(=O)(=O)c1ccc2c(c1)/C(=C/c1cc3c([nH]1)CCCC3)C(=O)N2 + COc1cc2ncnc(Nc3ccc(Oc4ccccc4)cc3)c2cc1OC [SrcI1] (first compound 0.4 µM, partner dose 2 µM) | 94.4 | 84.1 | 130 | 57.7 | 34.3 | 176 | 65.1 | 86.9 | 71.6 | –
8 | COc1ccc(-c2ccc3c(N4CCOCC4)nc(N4C[C@@H](C)O[C@@H](C)C4)nc3n2)cc1CO + COc1cc(N2CCC(N3CCN(C)CC3)CC2)ccc1Nc1ncc(Cl)c(Nc2ccccc2S(=O)(=O)C(C)C)n1 [NVP-TAE684] (first compound 0.02 µM, partner dose 0.08 µM) | 131 | 152 | 106 | 81.4 | 153 | 79.8 | 90.2 | 88.9 | 30 | –
9 | c1cc(-c2cnn3cc(-c4ccc(OCCN5CCCCC5)cc4)cnc23)ccn1 [Dorsomorphin] + Cn1cc(/C=C2\C(=O)Nc3cccnc32)c2ccccc21 [GW441756] (first compound 0.4 µM, partner dose 0.4 µM) | 129 | 106 | 72.8 | 60.1 | 123 | 115 | 43.8 | 257 | 209 | –
10 | COc1cc2c(Oc3ccc4[nH]c(C)cc4c3F)ncnc2cc1OCCCN1CCCC1 [cediranib] + Cc1cc([N+](=O)[O-])ccc1NS(=O)(=O)c1cc(Cl)ccc1Cl [FH535] (first compound 0.4 µM, partner dose 1 µM) | 579 | 149 | 106 | 74.2 | 71.7 | 123 | 45 | 86.2 | 115 | –
11 | COc1ccc2c(c1)CCC1C2CCC2(C)C(NCCCCCCN3C(=O)C=CC3=O)CCC12 (stereo unspecified) + CCN(CC)CCCCNc1ncc2cc(-c3cc(OC)cc(OC)c3)c(NC(=O)NC(C)(C)C)nc2n1 [PD173074] (first compound 0.4 µM, partner dose 0.1 µM) | 101 | 75 | 187 | 40.9 | 138 | 86.9 | 257 | 94.3 | 68.5 | –
12 | O=C(Nc1ccccc1)c1cc([N+](=O)[O-])ccc1Cl + O=C1NC(=O)/C(=C/c2ccc(-c3ccc(F)cc3O)o2)S1 [AS252424] (first compound 2 µM, partner dose 1 µM) | 82.6 | 97.2 | 129 | 82.3 | 136 | 37.8 | 179 | 96.5 | 25.4 | –
13 | N#Cc1c(O)c2c(-c3ccc(-c4ccccc4O)cc3)csc2[nH]c1=O + O=S(=O)(c1ccccc1)N(CC(F)(F)F)c1ccc(C(O)(C(F)(F)F)C(F)(F)F)cc1 [T0901317] (first compound 2 µM, partner dose 1.4 µM) | 461 | 65.1 | 232 | 96.5 | 196 | 181 | 185 | – | 58.3 | –
14 | CCN(CC)CCCCNc1ncc2cc(-c3cc(OC)cc(OC)c3)c(NC(=O)NC(C)(C)C)nc2n1 + Oc1cc(-c2nc(-c3ccccc3)[nH]c2-c2ccncc2)ccc1Cl [L779450] (first compound 0.1 µM, partner dose 0.2 µM) | 42.8 | 134 | 105 | 152 | 102 | 215 | 187 | – | 136 | –
15 | CCN(CC)CCCCNc1ncc2cc(-c3cc(OC)cc(OC)c3)c(NC(=O)NC(C)(C)C)nc2n1 + COc1cc(N2CCC(N3CCN(C)CC3)CC2)ccc1Nc1ncc(Cl)c(Nc2ccccc2S(=O)(=O)C(C)C)n1 [NVP-TAE684] (first compound 0.1 µM, partner dose 0.08 µM) | 181 | 234 | 202 | 49.8 | 31.7 | 77.9 | 426 | – | 26.5 | –
16 | N#Cc1c(O)c2c(-c3ccc(-c4ccccc4O)cc3)csc2[nH]c1=O + COC(=O)c1sccc1S(=O)(=O)Nc1ccc(Nc2ccccc2)cc1OC [GSK0660] (first compound 2 µM, partner dose 1 µM) | 85.7 | 79.9 | 77.7 | 70.4 | 182 | 234 | 79.1 | – | 97.8 | –
17 | CCCCCCCCCCCC1=C(O)C(=O)C=C(O)C1=O [Embelin] + O=c1cc(-c2cccc3c2Sc2ccccc2S3)oc(N2CCOCC2)c1 [KU55933] (first compound 1.2 µM, partner dose 1 µM) | 89.4 | 67.8 | 135 | 144 | 146 | 249 | 45.2 | – | 95.2 | –
18 | COc1cc2ncnc(Nc3ccc(Oc4ccccc4)cc3)c2cc1OC + CC(C)CCN1c2nc(Nc3cc(F)c(O)c(F)c3)ncc2N(C)C(=O)C1C [BID1870] (first compound 2 µM, partner dose 0.2 µM) | 90.7 | 170 | 156 | 114 | 68.1 | 26.1 | 82.5 | – | 70 | –
19 | COc1cc2c(Oc3ccc4[nH]c(C)cc4c3F)ncnc2cc1OCCCN1CCCC1 [cediranib] + O=c1cc(-c2cccc3c2Sc2ccccc2S3)oc(N2CCOCC2)c1 [KU55933] (first compound 0.4 µM, partner dose 1 µM) | 409 | 87.8 | 89.5 | 112 | 100 | 54.9 | 42.3 | – | 48.2 | –
20 | COc1ccc(COc2ccc(Cc3cnc(N)nc3N)cc2OC)cc1 + COc1cc(N2CCC(N3CCN(C)CC3)CC2)ccc1Nc1ncc(Cl)c(Nc2ccccc2S(=O)(=O)C(C)C)n1 [NVP-TAE684] (first compound 1 µM, partner dose 0.08 µM) | 173 | 131 | 98.6 | 126 | 153 | 173 | 44.8 | 83.9 | 69.9 | –
21 | CN(C)S(=O)(=O)c1ccc2c(c1)/C(=C/c1cc3c([nH]1)CCCC3)C(=O)N2 + COc1cc2c(Oc3ccc4[nH]c(C)cc4c3F)ncnc2cc1OCCCN1CCCC1 [cediranib] (first compound 0.4 µM, partner dose 0.4 µM) | – | 125 | 73.9 | 70.5 | 148 | 93.3 | 47 | 218 | 84.3 | 34.4
22 | COC(=O)c1sccc1S(=O)(=O)Nc1ccc(Nc2ccccc2)cc1OC + Oc1cc(-c2nc(-c3ccccc3)[nH]c2-c2ccncc2)ccc1Cl [L779450] (first compound 1 µM, partner dose 0.2 µM) | 91.7 | 104 | 101 | 51.8 | 137 | 84.1 | 84.5 | – | 46.7 | –
23 | COC(=O)c1sccc1S(=O)(=O)Nc1ccc(Nc2ccccc2)cc1OC + COc1ccc(-c2ccc3c(N4CCOCC4)nc(N4C[C@@H](C)O[C@@H](C)C4)nc3n2)cc1CO [KU0063794] (first compound 1 µM, partner dose 0.02 µM) | 90.8 | 101 | 82.4 | 41.9 | 149 | 149 | 90.8 | – | 53.6 | –
24 | CCc1ccc(CCOc2ccc(CC3SC(=O)NC3=O)cc2)nc1 (stereo unspecified) [pioglitazone] + O=C(O)C(=O)Nc1sc2c(c1C(=O)O)CCNC2 [TCS401] (first compound 2 µM, partner dose 1.66667 µM) | 436 | 116 | 99.6 | 91.9 | 116 | 448 | 59.1 | – | 90.9 | –

A second format for some results above:
Row	Compound	cleaved PARP positive nuclei fraction [1] [%]	cleaved PARP positive nuclei fraction [2] [%]	cleaved PARP positive nuclei fraction [3] [%]	cleaved PARP positive nuclei fraction [4] [%]	cleaved PARP positive nuclei fraction [5] [%]	cleaved PARP positive nuclei fraction [6] [%]	cleaved PARP positive nuclei fraction [7] [%]	cleaved PARP positive nuclei fraction [8] [%]	cleaved PARP positive nuclei fraction [9] [%]	cleaved PARP positive nuclei fraction [10] [%]
4	N#Cc1c(O)c2c(-c3ccc(-c4ccccc4O)cc3)csc2[nH]c1=O + O=C1NC(=O)/C(=C/c2ccc(-c3ccc(F)cc3O)o2)S1 [AS252424] (first compound 2 µM, partner dose 1 µM)	123	230	50.6	177	99.6	40.1	68.9	95	44.3	–
5	COc1cc2c(Oc3ccc4[nH]c(C)cc4c3F)ncnc2cc1OCCCN1CCCC1 [cediranib] + O=C(Nc1ccccc1)c1cc([N+](=O)[O-])ccc1Cl [GW9662] (first compound 0.4 µM, partner dose 2 µM)	115	169	142	131	23.4	128	88.8	153	12.2	–
